PubChem BioAssay AID504791 | Drosophila RNAi Screening Center | 2011

Assay: 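Genes whose knock-down strengthens or weakens small-RNA reporter silencing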 (primary screen)
System: Drosophila S2-derived reporter cells
Knock-down reagent: long dsRNA against Drosophila genes, about 150-250 ng dsRNA per well (siRNA assay); about 80-120 ng (miRNA assay)
Timing: about 5 days (siRNA assay); about 4 days (miRNA assay)
Treatment: copper sulfate induction of reporters: 25 µM (siRNA assay); 200 mM stated (miRNA assay), 1-2 days before reading
Detection: 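Per-well ratio of Renilla over firefly light, expressed relative to that plate's average ratio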
Call rule: 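a well was a first-pass pick when its plate-scaled ratio rose above 1.5 (siRNA assay) or 1.6 (miRNA assay), or dropped below 0.6; a gene counted only if two separate dsRNAs agreed on retest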
The screen tested about 23,000 reagents; below is a random part of those with a known target gene and a result. In the full data, 199 (0.86%) were called active. 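Plate-scaled ratios behind the calls are not deposited; printed light signals are raw; many rows marked increased or decreased are still called inactive.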 Names joined by + are all predicted targets of the reagent. No sequences are given here. The record does not give: the direction of the score.

Cdk5alpha (GeneID 34385) [DRSC03290] | stable assay Renilla, run 1 (luminescence): 6444; stable assay firefly, run 1 (luminescence): 3.97e5; activity call: inactive
Cdk5alpha (GeneID 34385) [DRSC23301] | stable assay Renilla, run 1 (luminescence): 7318; stable assay firefly, run 1 (luminescence): 3.89e5; activity call: inactive
CG15237 (GeneID 35591) [DRSC04971] | stable assay Renilla, run 1 (luminescence): 6415; stable assay firefly, run 1 (luminescence): 4.76e5; activity call: inactive
Sgt1 (GeneID 40982) [DRSC16519] | stable assay Renilla, run 1 (luminescence): 8499; stable assay firefly, run 1 (luminescence): 4.48e5; activity call: inactive
Rh4 + sina [DRSC11396] | stable assay Renilla, run 1 (luminescence): 7807; stable assay firefly, run 1 (luminescence): 3.05e5; activity call: inactive
CG17118 (GeneID 34478) [DRSC02579] | stable assay Renilla, run 1 (luminescence): 7899; stable assay firefly, run 1 (luminescence): 4.21e5; activity call: inactive
mRpL36 (GeneID 59151) [DRSC10337] | stable assay Renilla, run 1 (luminescence): 6152; stable assay firefly, run 1 (luminescence): 4.99e5; activity call: inactive
CG6484 (GeneID 36994) [DRSC06991] | stable assay Renilla, run 1 (luminescence): 10936; stable assay firefly, run 1 (luminescence): 4.12e5; activity call: inactive
eIF4G1 (GeneID 43839) [DRSC17218] | stable assay Renilla, run 1 (luminescence): 9247; stable assay firefly, run 1 (luminescence): 3.64e5; activity call: inactive
CG13689 (GeneID 33241) [DRSC00358] | stable assay Renilla, run 1 (luminescence): 8335; stable assay firefly, run 1 (luminescence): 4.82e5; activity call: inactive
dpr6 (GeneID 50296) [DRSC09005] | stable assay Renilla, run 1 (luminescence): 3747; stable assay firefly, run 1 (luminescence): 3.15e5; activity call: inactive
dpr6 (GeneID 50296) [DRSC10162] | stable assay Renilla, run 1 (luminescence): 6691; stable assay firefly, run 1 (luminescence): 4.12e5; activity call: inactive
dpr6 (GeneID 50296) [DRSC10163] | stable assay Renilla, run 1 (luminescence): 6384; stable assay firefly, run 1 (luminescence): 5.81e5; activity call: inactive
CG31862 (GeneID 318989) [DRSC01245] | stable assay Renilla, run 1 (luminescence): 4994; stable assay firefly, run 1 (luminescence): 3.85e5; activity call: inactive
CG3306 (GeneID 39116) [DRSC10357] | stable assay Renilla, run 1 (luminescence): 7630; stable assay firefly, run 1 (luminescence): 3.42e5; activity call: inactive
Cpr65Au (GeneID 59158) [DRSC22738] | stable assay Renilla, run 1 (luminescence): 2919; stable assay firefly, run 1 (luminescence): 3.32e5; activity call: inactive
Idh3a (GeneID 32940) [DRSC19446] | stable assay Renilla, run 1 (luminescence): 5139; stable assay firefly, run 1 (luminescence): 3.62e5; activity call: inactive
CG4360 (GeneID 42413) [DRSC15566] | stable assay Renilla, run 1 (luminescence): 6731; stable assay firefly, run 1 (luminescence): 3.62e5; activity call: inactive
inaC (GeneID 36897) [DRSC07632] | stable assay Renilla, run 1 (luminescence): 8818; stable assay firefly, run 1 (luminescence): 2.37e5; activity call: inactive
CG33477 (GeneID 2768726) [DRSC22934] | stable assay Renilla, run 1 (luminescence): 4780; stable assay firefly, run 1 (luminescence): 4.58e5; activity call: inactive
Grd (GeneID 39984) [DRSC11178] | stable assay Renilla, run 1 (luminescence): 7694; stable assay firefly, run 1 (luminescence): 3.24e5; activity call: inactive
osk (GeneID 41066) [DRSC17023] | stable assay Renilla, run 1 (luminescence): 8078; stable assay firefly, run 1 (luminescence): 3.39e5; activity call: inactive
Polr2J (GeneID 35043) [DRSC02995] | stable assay Renilla, run 1 (luminescence): 6883; stable assay firefly, run 1 (luminescence): 3.91e5; activity call: inactive
CG33120 (GeneID 326260) [DRSC02073] | stable assay Renilla, run 1 (luminescence): 9670; stable assay firefly, run 1 (luminescence): 1.60e6; activity call: inactive
CG5347 (GeneID 32403) [DRSC19942] | stable assay Renilla, run 1 (luminescence): 6670; stable assay firefly, run 1 (luminescence): 4.30e5; activity call: inactive
CG13623 (GeneID 42926) [DRSC14625] | stable assay Renilla, run 1 (luminescence): 6510; stable assay firefly, run 1 (luminescence): 2.91e5; activity call: inactive
CG4872 (GeneID 32676) [DRSC19921] | stable assay Renilla, run 1 (luminescence): 7439; stable assay firefly, run 1 (luminescence): 4.35e5; activity call: inactive
Sry-beta (GeneID 43570) [DRSC16868] | stable assay Renilla, run 1 (luminescence): 8370; stable assay firefly, run 1 (luminescence): 4.18e5; activity call: inactive
